{"source": "patent US9018630B2", "about": "“Heterocyclic dinaphtho thieno thiophene (DNTT) compounds for use as organic semiconductor thin films in field effect transistors and related methods” (Nippon Kayaku Kabushiki Kaisha, priority 2011, dated 2015)", "key": {"[1]": {"assay": "TC type field effect transistor on HMDS-SAM treated substrate, carrier mobility (Example 50)", "conditions": "TC FET, substrate temperature during deposition 25° C. and 100° C., L=50 μm, W=2000 μm", "description": "Using the compounds of this application synthesized in Examples 38 to 48, and the compound Ref-01 in Comparative Example 1, and the compound (2)-64, TC type field effect transistors were created by the same operation as that in Example 49 except that a substrate treated with HMDS-SAM was used, the substrate temperature during deposition was 25° C. and 100° C., L=50 μm, and W=2000 μm. The semiconductor properties of the obtained transistors were measured according to Example 49."}, "[2]": {"assay": "TC type field effect transistor, channel length dependency (Example 53)", "conditions": "for channel length dependency of mobility: L=40 μm versus L=190 μm; for Mobility: channel width 1500 μm, substrate approximately 100° C., octadecyltrichlorosilane treated", "excerpt": "An n-doped silicon wafer subjected to an octadecyltrichlorosilane treatment and having a 300 nm SiO2 thermal oxide film (surface resistance of 0.02 Ω·cm or less) was placed inside of a vacuum deposition apparatus, and the air in the apparatus was discharged until the degree of vacuum reached 5.0×10^−3 Pa or less. Each of the compounds (1)-12 and 2-(64) was deposited onto an electrode to have a thickness of 50 nm by the resistance heating deposition method under the condition of the substrate temperature of approximately 100° C. Thereby, a semiconductor layer (2) was formed. Next, a shadow mask for creating an electrode (channel width of 1500 μm) having a channel length L of 40 μm or 190 μm was attached to this substrate. The substrate was placed inside of the vacuum deposition apparatus, and the air in the apparatus was discharged until the degree of vacuum reached 1.0×10^−4 Pa or less. The gold electrodes, namely, the source electrode (1) and the drain electrode (3) were deposited by the resistance heating deposition method to have a thickness of 40 nm. Thereby, a TC (top contact) type field effect transistor of the present invention was obtained. […] Meanwhile, the compound (2)-64 having a substituent at 2,9-positions attained a transistor having the mobility 6.1 cm^2/Vs at L=190 μm, but the channel length dependency was remarkable."}, "[3]": {"assay": "Top contact type field effect transistor, carrier mobility (Example 49 / Comparative Example 1)", "conditions": "TC FET, octadecyltrichlorosilane treated 300 nm SiO2/n-doped Si, 50 nm vacuum deposited film, substrate temperature approximately 60° C.", "excerpt": "An n-doped silicon wafer subjected to an octadecyltrichlorosilane treatment and having a 300 nm SiO2 thermal oxide film (surface resistance of 0.02 Ω·cm or less) was placed inside of a vacuum deposition apparatus, and the air in the apparatus was discharged until the degree of vacuum of the air reached 5.0×10^−3 Pa or less. Each of the compounds (1)-12, (1)-22, and (1)-31 was deposited onto an electrode to have a thickness of 50 nm by a resistance heating deposition method under the condition of a substrate temperature of approximately 60° C. Thereby, a semiconductor layer (2) was formed. Next, a shadow mask for creating an electrode was attached to this substrate. The substrate was placed inside of the vacuum deposition apparatus, and the air in the apparatus was discharged until the degree of vacuum of the air reached 1.0×10^−4 Pa or less. The gold electrodes, that is, the source electrode (1) and the drain electrode (3) were deposited by the resistance heating deposition method to have a thickness of 40 nm. Thereby, a TC (top contact) type field effect transistor of the present invention was obtained.\nIn the field effect transistor, the thermal oxide film in the n-doped silicon wafer having a thermal oxide film has the function of the insulator layer (4), and the n-doped silicon wafer has the functions of the substrate (6) and the gate electrode (5) (see FIG. 3).\nThe obtained field effect transistor was placed inside of a prober, and the semiconductor properties were measured using a semiconductor parameter analyzer 4155C (manufactured by Agilent Technologies, Inc.). For the semiconductor properties, the drain current-drain voltage was measured by scanning the gate voltage from 10 V to −100 V at 20 V steps, and scanning the drain voltage from 10 V to −100 V. Current saturation was observed.\nInstead of the compound according to the present embodiment used in Example 49, DNTT (Ref-01), 3,10-DM-DNTT (Ref-02; a compound wherein R^1 in (1) was a methyl group), and 2,9-DM-DNTT (Ref-03; a compound wherein R^2 in (1) was a methyl group) were used, and TC type field effect transistors were obtained by the same operation as that in Example 49."}, "[4]": {"assay": "Heat resistance test of TC type field effect transistors (Example 51)", "description": "Using the compound (1)-22 synthesized in Example 39 and the compound (2)-64 synthesized in Synthesis Example 14, TC type field effect transistors were created by the same operation as that in Example 49 except that a substrate treated with HMDS-SAM was used, the substrate temperature during deposition was 100° C., L=40 μm, and W=1500 μm. The obtained field effect transistors were subjected to a heat resistance test. Comparing the initial properties (μ=1.66 cm^2/Vs, Vth=−14 V, Ion/off˜10^9), the mobility was approximately 1.6 cm^2/Vs even after annealing at 100° C. and 150° C., and the values of these properties were kept approximately equal to the initial values thereof. The properties were improved, for example, Vth was shifted to a low potential side."}, "[5]": {"conditions": "channel length L 190 (text: μm)"}, "[6]": {"conditions": "Not annealed (initial), HMDS-SAM, substrate 100° C., L=40 μm, W=1500 μm"}}, "note": "Values joined by “and” are separate entries in the source; they are usually repeats but may differ in a detail not shown here. Identical values can stand only once. Marks after values point to notes of the source that are not given here.", "data": [{"smiles": "CCCCc1ccc2cc3c(cc2c1)sc1c2cc4ccc(CCCC)cc4cc2sc31", "note": "[(1)-04, 3,10-dibutyldinaphtho[2,3-b:2′,3′-f]thieno[2,3-b]thiophene]", "values": [{"measurement": "Mobility", "setting": "[1]", "result": 3.16, "unit": "cm^2/Vs"}]}, {"smiles": "CCCCCCc1ccc2cc3c(cc2c1)sc1c2cc4ccc(CCCCCC)cc4cc2sc31", "note": "[(1)-08, 3,10-dihexyldinaphtho[2,3-b:2′,3′-f]thieno[2,3-b]thiophene]", "values": [{"measurement": "Mobility", "setting": "[1]", "result": 2.96, "unit": "cm^2/Vs"}]}, {"smiles": "CCCCCCCCc1ccc2cc3c(cc2c1)sc1c2cc4ccc(CCCCCCCC)cc4cc2sc31", "note": "[(1)-10, 3,10-dioctyldinaphtho[2,3-b:2′,3′-f]thieno[2,3-b]thiophene]", "values": [{"measurement": "Mobility", "setting": "[1]", "result": 3.22, "unit": "cm^2/Vs"}]}, {"smiles": "CCCCCCCCCCc1ccc2cc3sc4c5cc6cc(CCCCCCCCCC)ccc6cc5sc4c3cc2c1", "note": "[(1)-12, 3,10-didecyl dinaphtho[2,3-b:2′,3′-f]thieno[2,3-b]thiophene]", "values": [{"measurement": "channel length dependency of mobility", "setting": "[2]", "result": "small"}, {"measurement": "Ion/off", "setting": "[2]; channel length L 40", "result": "10^9"}, {"measurement": "Vth", "setting": "[2]; channel length L 40", "result": "−19", "unit": "V"}, {"measurement": "Mobility", "setting": "[2]; channel length L 40 (text: μm)", "result": 3.15, "unit": "cm^2/Vs"}, {"measurement": "Ion/off", "setting": "[2]; channel length L 190", "result": "10^8"}, {"measurement": "Vth", "setting": "[2]; channel length L 190", "result": "−17", "unit": "V"}, {"measurement": "Mobility", "setting": "[2]; [5]", "result": 3.56, "unit": "cm^2/Vs"}, {"measurement": "Mobility", "setting": "[1]", "result": 3.98, "unit": "cm^2/Vs"}, {"measurement": "Mobility", "setting": "[3]", "result": 8.0, "unit": "cm^2/Vs"}]}, {"smiles": "CCCCCCCCCCCCc1ccc2cc3c(cc2c1)sc1c2cc4ccc(CCCCCCCCCCCC)cc4cc2sc31", "note": "[(1)-14, 3,10-didodecyldinaphtho[2,3-b:2′,3′-f]thieno[2,3-b]thiophene]", "values": [{"measurement": "Mobility", "setting": "[1]", "result": 3.78, "unit": "cm^2/Vs"}]}, {"smiles": "c1ccc(-c2ccc3cc4sc5c6cc7cc(-c8ccccc8)ccc7cc6sc5c4cc3c2)cc1", "note": "[(1)-22, 3,10-diphenyl dinaphtho[2,3-b:2′,3′-f]thieno[3,2-b]thiophene]", "values": [{"measurement": "Mobility", "setting": "[1]", "result": 4.04, "unit": "cm^2/Vs"}, {"measurement": "Mobility", "setting": "[3]", "result": 3.4, "unit": "cm^2/Vs"}, {"measurement": "Ion/Ioff", "setting": "[4]; Annealed (100° C.)", "result": "1.0 × 10^9"}, {"measurement": "Vth", "setting": "[4]; Annealed (100° C.)", "result": "−8.8", "unit": "V"}, {"measurement": "μ", "setting": "[4]; Annealed (100° C.)", "result": 1.59, "unit": "cm^2/Vs"}, {"measurement": "Ion/Ioff", "setting": "[4]; Annealed (150° C.)", "result": "1.0 × 10^9"}, {"measurement": "Vth", "setting": "[4]; Annealed (150° C.)", "result": "−7.0", "unit": "V"}, {"measurement": "μ", "setting": "[4]; Annealed (150° C.)", "result": 1.62, "unit": "cm^2/Vs"}, {"measurement": "Vth", "setting": "[4]; Not annealed (initial)", "result": "−14 V and −14.0 V"}, {"measurement": "μ", "setting": "[4]; [6]", "result": 1.66, "unit": "cm^2/Vs"}, {"measurement": "mobility after annealing", "setting": "[4]; after annealing at 100° C. and 150° C.", "result": "approximately 1.6 cm^2/Vs"}]}, {"smiles": "Cc1ccc(-c2ccc3cc4c(cc3c2)sc2c3cc5ccc(-c6ccc(C)cc6)cc5cc3sc42)cc1", "note": "[(1)-23, 3,10-ditolyldinaphtho[2,3-b:2′,3′-f]thieno[2,3-b]thiophene]", "values": [{"measurement": "Mobility", "setting": "[1]", "result": 1.78, "unit": "cm^2/Vs"}]}, {"smiles": "c1ccc(-c2ccc3cc4sc5c6cc7cc(-c8ccccc8)ccc7cc6sc5c4cc3c2)cc1", "note": "[(1)-31, 2,9-diphenyl dinaphtho[2,3-b:2′,3′-f]thieno[3,2-b]thiophene]", "values": [{"measurement": "Mobility", "setting": "[1]", "result": 2.06, "unit": "cm^2/Vs"}, {"measurement": "Mobility", "setting": "[3]", "result": 3.9, "unit": "cm^2/Vs"}]}, {"smiles": "Cc1ccc(-c2ccc3cc4sc5c6cc7cc(-c8ccc(C)cc8)ccc7cc6sc5c4cc3c2)cc1", "note": "[(1)-32, 2,9-ditolyldinaphtho[2,3-b:2′,3′-f]thieno[2,3-b]thiophene]", "values": [{"measurement": "Mobility", "setting": "[1]", "result": 2.09, "unit": "cm^2/Vs"}]}, {"smiles": "c1ccc(-c2ccc(-c3ccc4cc5sc6c7cc8cc(-c9ccc(-c%10ccccc%10)cc9)ccc8cc7sc6c5cc4c3)cc2)cc1", "note": "[(1)-33, 2,9-dibiphenyldinaphtho[2,3-b:2′,3′-f]thieno[2,3-b]thiophene]", "values": [{"measurement": "Mobility", "setting": "[1]", "result": "1.86* cm^2/Vs"}]}, {"smiles": "CCCCCCCCCCc1ccc2cc3sc4c5cc6cc(CCCCCCCCCC)ccc6cc5sc4c3cc2c1", "note": "[(2)-64, 2,9-didecyldinaphtho[2,3-b:2′,3′-f]thieno[2,3-b]thiophene, reference compound]", "values": [{"measurement": "channel length dependency of mobility", "setting": "[2]", "result": "remarkable"}, {"measurement": "Ion/off", "setting": "[2]; channel length L 40", "result": "10^8"}, {"measurement": "Vth", "setting": "[2]; channel length L 40", "result": "−10", "unit": "V"}, {"measurement": "Mobility", "setting": "[2]; channel length L 40 (text: μm)", "result": 3.7, "unit": "cm^2/Vs"}, {"measurement": "Ion/off", "setting": "[2]; channel length L 190", "result": "10^9"}, {"measurement": "Vth", "setting": "[2]; channel length L 190", "result": "−5", "unit": "V"}, {"measurement": "Mobility", "setting": "[2]; [5]", "result": 6.1, "unit": "cm^2/Vs"}, {"measurement": "Ion/Ioff", "setting": "[4]; Annealed (100° C.)", "result": "1.0 × 10^9"}, {"measurement": "Vth", "setting": "[4]; Annealed (100° C.)", "result": "−1.0", "unit": "V"}, {"measurement": "μ", "setting": "[4]; Annealed (100° C.)", "result": 1.52, "unit": "cm^2/Vs"}, {"measurement": "Ion/Ioff", "setting": "[4]; Annealed (150° C.)", "result": "1.0 × 10^9"}, {"measurement": "Vth", "setting": "[4]; Annealed (150° C.)", "result": 0.8, "unit": "V"}, {"measurement": "μ", "setting": "[4]; Annealed (150° C.)", "result": 0.77, "unit": "cm^2/Vs"}, {"measurement": "Ion/Ioff", "setting": "[4]; Not annealed (initial)", "result": "1.0 × 10^9"}, {"measurement": "Vth", "setting": "[4]; Not annealed (initial)", "result": 0.2, "unit": "V"}, {"measurement": "μ", "setting": "[4]; [6]", "result": 1.96, "unit": "cm^2/Vs"}, {"measurement": "change of mobility on heating", "setting": "[4]; at approximately 120° C.", "result": "reduced by half"}]}, {"smiles": "c1ccc2cc3c(cc2c1)sc1c2cc4ccccc4cc2sc31", "note": "[Ref-01, Dinaphtho[2,3-b:2′,3′-f]thieno[3,2-b]thiophene, reference compound]", "values": [{"measurement": "Mobility", "setting": "[1]", "result": 1.22, "unit": "cm^2/Vs"}, {"measurement": "Mobility", "setting": "[3]", "result": 3.0, "unit": "cm^2/Vs"}]}, {"smiles": "Cc1ccc2cc3sc4c5cc6cc(C)ccc6cc5sc4c3cc2c1", "note": "[Ref-02]", "values": [{"measurement": "Mobility", "setting": "[3]", "result": 0.2, "unit": "cm^2/Vs"}]}, {"smiles": "Cc1ccc2cc3c(cc2c1)sc1c2cc4ccc(C)cc4cc2sc31", "note": "[Ref-03]", "values": [{"measurement": "Mobility", "setting": "[3]", "result": 0.2, "unit": "cm^2/Vs"}]}]}
